# Source: the supplement of paper PMC10849652
# Protein sequences, listed by entry. Tags and fused reporters are not part of them. Lines headed by an entry give the natural chain unless they say otherwise; changes in a name come on top.
# UniProt Q07666, whole entry, looked up: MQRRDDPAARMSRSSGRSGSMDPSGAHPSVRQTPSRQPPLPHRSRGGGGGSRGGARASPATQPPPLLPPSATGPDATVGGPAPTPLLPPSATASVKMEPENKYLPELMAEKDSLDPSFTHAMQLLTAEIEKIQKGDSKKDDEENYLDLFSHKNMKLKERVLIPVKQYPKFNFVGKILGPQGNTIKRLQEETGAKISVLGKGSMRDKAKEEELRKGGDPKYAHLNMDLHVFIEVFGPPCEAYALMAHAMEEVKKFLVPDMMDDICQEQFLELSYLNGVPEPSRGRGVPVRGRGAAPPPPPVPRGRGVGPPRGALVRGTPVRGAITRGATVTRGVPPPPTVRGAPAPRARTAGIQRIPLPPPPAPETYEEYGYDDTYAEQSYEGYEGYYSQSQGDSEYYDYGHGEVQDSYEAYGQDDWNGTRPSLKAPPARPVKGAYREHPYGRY
# UniProt Q14681: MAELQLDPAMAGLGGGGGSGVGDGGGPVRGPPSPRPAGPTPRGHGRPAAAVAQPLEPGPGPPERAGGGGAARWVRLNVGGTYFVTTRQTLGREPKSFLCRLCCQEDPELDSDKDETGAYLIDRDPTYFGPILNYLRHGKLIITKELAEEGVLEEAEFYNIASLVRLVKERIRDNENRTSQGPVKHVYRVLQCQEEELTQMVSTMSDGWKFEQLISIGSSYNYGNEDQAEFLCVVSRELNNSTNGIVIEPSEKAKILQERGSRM
# UniProt Q8IXV7: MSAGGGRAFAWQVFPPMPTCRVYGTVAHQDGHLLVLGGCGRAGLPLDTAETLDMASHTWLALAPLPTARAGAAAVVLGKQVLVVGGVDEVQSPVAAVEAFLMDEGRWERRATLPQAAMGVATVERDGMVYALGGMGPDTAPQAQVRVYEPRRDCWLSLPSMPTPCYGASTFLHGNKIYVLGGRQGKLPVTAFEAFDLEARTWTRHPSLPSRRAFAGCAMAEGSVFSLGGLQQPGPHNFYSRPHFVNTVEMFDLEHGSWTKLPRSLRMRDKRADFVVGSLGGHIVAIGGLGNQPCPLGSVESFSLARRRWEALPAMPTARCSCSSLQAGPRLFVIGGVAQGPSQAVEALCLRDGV
# UniProt Q9ULH0: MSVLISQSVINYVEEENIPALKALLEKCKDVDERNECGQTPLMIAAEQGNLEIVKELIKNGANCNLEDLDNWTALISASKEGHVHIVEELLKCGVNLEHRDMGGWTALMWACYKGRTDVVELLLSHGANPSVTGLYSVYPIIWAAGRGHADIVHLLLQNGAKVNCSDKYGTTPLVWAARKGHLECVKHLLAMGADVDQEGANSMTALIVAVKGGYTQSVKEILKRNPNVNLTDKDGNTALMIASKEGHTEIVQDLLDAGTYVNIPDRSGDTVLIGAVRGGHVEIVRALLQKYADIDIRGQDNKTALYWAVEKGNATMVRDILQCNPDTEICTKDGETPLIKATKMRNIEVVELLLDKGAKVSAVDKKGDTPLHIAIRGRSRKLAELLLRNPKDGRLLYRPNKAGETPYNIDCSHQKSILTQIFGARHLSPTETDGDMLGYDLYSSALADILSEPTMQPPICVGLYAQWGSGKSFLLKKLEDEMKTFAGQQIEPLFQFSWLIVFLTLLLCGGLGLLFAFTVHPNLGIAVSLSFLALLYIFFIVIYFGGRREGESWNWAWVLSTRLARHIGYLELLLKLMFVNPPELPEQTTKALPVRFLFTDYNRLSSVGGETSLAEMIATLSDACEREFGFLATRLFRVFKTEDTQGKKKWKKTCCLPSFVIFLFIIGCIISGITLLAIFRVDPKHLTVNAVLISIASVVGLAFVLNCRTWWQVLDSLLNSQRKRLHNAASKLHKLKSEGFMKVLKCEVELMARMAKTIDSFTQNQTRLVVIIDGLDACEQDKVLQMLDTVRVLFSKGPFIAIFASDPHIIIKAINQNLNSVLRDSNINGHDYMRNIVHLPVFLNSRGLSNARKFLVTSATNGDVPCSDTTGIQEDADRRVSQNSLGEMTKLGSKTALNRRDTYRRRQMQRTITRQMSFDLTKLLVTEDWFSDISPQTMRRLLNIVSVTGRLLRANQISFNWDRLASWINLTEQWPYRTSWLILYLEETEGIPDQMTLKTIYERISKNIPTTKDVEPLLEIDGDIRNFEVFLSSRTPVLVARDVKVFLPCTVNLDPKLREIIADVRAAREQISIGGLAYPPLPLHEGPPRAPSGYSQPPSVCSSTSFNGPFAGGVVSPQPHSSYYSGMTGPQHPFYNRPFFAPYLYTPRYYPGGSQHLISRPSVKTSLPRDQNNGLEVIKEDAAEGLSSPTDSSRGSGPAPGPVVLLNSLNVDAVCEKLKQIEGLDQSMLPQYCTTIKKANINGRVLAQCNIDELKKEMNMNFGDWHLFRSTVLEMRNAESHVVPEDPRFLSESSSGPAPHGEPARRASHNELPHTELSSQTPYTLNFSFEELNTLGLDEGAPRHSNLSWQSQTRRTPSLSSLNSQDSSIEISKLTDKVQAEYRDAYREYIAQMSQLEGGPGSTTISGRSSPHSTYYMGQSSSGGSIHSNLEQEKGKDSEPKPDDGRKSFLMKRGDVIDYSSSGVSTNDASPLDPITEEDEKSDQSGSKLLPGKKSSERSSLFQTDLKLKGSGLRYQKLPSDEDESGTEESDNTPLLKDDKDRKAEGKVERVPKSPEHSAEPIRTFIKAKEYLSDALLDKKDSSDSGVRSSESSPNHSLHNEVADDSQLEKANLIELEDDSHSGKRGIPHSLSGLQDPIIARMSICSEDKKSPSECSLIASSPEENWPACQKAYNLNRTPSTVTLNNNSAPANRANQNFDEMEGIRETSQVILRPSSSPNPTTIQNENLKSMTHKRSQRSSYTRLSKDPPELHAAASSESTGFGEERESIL
# UniProt P52732: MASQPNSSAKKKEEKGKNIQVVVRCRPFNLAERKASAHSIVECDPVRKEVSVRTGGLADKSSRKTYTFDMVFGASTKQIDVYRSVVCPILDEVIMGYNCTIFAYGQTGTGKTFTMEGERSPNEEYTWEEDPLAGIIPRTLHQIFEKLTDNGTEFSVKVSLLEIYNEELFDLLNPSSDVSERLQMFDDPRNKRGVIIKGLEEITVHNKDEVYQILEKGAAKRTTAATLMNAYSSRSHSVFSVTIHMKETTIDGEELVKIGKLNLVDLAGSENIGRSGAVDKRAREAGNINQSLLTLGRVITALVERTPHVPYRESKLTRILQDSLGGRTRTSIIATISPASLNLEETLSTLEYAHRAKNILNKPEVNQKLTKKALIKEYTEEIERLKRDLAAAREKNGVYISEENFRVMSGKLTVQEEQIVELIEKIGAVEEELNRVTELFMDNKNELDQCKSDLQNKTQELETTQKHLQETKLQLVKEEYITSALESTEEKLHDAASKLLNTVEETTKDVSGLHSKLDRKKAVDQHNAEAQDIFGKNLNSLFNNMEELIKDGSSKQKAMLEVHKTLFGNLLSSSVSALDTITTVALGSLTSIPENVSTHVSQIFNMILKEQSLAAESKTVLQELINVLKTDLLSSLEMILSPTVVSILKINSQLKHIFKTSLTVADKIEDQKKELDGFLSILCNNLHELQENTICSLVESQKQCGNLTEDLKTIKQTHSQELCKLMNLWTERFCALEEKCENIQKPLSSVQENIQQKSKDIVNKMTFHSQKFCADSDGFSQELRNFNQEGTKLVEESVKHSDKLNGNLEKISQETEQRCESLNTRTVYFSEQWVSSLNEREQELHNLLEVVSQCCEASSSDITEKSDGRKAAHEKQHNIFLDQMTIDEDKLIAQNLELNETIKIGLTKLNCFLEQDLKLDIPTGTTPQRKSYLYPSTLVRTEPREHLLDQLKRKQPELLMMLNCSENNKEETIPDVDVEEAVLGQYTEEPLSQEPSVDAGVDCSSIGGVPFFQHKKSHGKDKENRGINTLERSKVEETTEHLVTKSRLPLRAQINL
# UniProt P33947: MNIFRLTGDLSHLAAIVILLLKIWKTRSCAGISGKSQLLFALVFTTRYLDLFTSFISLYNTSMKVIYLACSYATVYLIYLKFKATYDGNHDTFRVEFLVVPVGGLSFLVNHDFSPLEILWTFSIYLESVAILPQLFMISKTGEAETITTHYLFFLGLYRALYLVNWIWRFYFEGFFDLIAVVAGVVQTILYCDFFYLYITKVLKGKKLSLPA
# UniProt Q9H1H9: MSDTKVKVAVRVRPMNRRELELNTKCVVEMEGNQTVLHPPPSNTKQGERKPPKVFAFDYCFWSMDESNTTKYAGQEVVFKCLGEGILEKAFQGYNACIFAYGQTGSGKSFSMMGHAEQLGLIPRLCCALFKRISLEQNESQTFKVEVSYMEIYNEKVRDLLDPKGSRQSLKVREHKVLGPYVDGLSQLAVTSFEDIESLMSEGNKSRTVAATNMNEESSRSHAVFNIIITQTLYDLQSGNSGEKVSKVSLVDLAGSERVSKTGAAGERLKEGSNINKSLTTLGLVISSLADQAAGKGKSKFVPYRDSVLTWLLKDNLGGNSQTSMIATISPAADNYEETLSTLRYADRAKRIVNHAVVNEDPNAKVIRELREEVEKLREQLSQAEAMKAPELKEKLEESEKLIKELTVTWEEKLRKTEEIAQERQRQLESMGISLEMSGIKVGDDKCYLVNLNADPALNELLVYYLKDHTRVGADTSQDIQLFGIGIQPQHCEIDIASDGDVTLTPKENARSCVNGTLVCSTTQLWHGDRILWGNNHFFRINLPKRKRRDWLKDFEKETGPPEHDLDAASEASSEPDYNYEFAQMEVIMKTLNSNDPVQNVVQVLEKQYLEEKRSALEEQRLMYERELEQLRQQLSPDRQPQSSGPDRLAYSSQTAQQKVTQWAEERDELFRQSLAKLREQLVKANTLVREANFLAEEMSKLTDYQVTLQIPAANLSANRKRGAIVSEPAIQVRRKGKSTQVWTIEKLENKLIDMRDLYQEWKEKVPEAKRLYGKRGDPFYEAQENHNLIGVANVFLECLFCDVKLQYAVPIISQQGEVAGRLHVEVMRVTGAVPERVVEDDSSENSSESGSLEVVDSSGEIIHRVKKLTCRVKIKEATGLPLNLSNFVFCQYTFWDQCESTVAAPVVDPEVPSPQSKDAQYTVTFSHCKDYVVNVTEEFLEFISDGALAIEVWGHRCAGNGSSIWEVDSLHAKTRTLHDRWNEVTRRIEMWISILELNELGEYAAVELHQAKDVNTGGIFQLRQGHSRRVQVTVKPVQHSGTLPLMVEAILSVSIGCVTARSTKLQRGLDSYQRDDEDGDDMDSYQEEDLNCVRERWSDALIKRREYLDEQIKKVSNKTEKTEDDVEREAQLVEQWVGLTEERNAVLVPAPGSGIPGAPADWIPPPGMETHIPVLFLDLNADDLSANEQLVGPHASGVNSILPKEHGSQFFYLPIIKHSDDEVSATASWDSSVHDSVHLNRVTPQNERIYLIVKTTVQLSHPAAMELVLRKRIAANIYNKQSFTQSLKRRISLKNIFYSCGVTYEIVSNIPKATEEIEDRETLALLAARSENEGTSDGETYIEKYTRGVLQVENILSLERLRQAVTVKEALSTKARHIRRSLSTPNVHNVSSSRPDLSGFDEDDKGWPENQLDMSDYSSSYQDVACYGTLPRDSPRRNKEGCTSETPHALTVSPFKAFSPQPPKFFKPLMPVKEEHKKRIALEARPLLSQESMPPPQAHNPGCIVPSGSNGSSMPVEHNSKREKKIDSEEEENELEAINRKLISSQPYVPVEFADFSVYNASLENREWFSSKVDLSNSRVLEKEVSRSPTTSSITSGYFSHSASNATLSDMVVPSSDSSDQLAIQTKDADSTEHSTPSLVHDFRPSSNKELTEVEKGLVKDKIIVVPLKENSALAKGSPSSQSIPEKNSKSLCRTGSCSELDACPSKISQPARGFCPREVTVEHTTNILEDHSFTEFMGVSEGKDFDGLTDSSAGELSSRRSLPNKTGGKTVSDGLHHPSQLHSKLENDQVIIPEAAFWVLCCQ
# UniProt O15554, whole entry, looked up: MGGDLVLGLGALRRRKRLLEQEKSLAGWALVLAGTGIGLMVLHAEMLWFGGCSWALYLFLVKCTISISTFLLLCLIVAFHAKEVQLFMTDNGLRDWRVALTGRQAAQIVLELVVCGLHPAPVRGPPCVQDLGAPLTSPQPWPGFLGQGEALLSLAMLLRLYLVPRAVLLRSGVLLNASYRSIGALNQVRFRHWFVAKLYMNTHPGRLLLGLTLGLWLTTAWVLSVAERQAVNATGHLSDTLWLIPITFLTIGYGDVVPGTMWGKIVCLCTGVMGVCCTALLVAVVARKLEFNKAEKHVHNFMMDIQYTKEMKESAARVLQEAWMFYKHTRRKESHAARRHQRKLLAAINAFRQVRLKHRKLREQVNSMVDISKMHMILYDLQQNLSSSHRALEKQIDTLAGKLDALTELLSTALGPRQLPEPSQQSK
# Some of the results follow.
# How the values were obtained:
# Assay in all cases: log2 fold change, soluble protein after heating vs DMSO (PISA); higher = thermal stabilisation; K562 cells, 10 uM, 30 min; active = over 0.2 and 3.5 SD of the protein, either way, in both replicates (recomputed)
# [1] = compound: CS(=O)(=O)c1ccc(-c2cnc(N)c(C(=O)Nc3ccccc3)n2)cc1
# How it was run: (§1)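 For each measurement, 10 μM compound was applied for 30 min to K562 cells at 2×10^6 cells/mL. Aliquots were heated for 3 min across 48°C-58°C, pooled, and extracted in PBS with 0.5% NP-40 at 4°C; the supernatant after 21,000xg for 90 min was soluble protein. This was quantified by TMTpro 16plex LC-MS/MS with channel sums equalised, and thermal stability was reported relative to control samples from duplicates, on a log2 fold-change scale.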
# crizotinib = compound: C[C@@H](Oc1cc(-c2cnn(C3CCNCC3)c2)cnc1N)c1c(Cl)ccc(F)c1Cl [crizotinib]
# How it was run: as §1
# [2] = compound: C[C@@H]1COCCN1C2=NC(=NC(=C2)C3(CC3)S(=O)(=O)C)C4=C5C=CNC5=CC=C4
# How it was run: as §1
# [3] = compound: C[C@H](C1=CC=C(C=C1)C(=O)NC2=C3C=CNC3=NC=C2)N
# How it was run: as §1
# gandotinib = compound: Cc1cc(Nc2cc(CN3CCOCC3)c3nc(C)c(Cc4ccc(Cl)cc4F)n3n2)n[nH]1 [gandotinib]
# How it was run: as §1
# [4] = compound: Cc1cc(SCc2sc(-c3ccc(C(F)(F)F)cc3)nc2C)ccc1OCC(=O)O
# How it was run: as §1
# doramapimod = compound: Cc1ccc(-n2nc(C(C)(C)C)cc2NC(=O)Nc2ccc(OCCN3CCOCC3)c3ccccc23)cc1 [doramapimod]
# How it was run: as §1
# ispinesib = compound: Cc1ccc(C(=O)N(CCCN)[C@@H](c2nc3cc(Cl)ccc3c(=O)n2Cc2ccccc2)C(C)C)cc1 [ispinesib]
# How it was run: as §1
# bafetinib = compound: Cc1ccc(NC(=O)c2ccc(CN3CC[C@H](N(C)C)C3)c(C(F)(F)F)c2)cc1Nc1nccc(-c2cncnc2)n1 [bafetinib]
# How it was run: as §1
# [5] = compound: Cc1cccc(CC(=O)N2CCc3c2ccc(-c2cn(C)c4ncnc(N)c24)c3F)n1
# How it was run: as §1
# nilotinib = compound: Cc1cn(-c2cc(NC(=O)c3ccc(C)c(Nc4nccc(-c5cccnc5)n4)c3)cc(C(F)(F)F)c2)cn1 [nilotinib]
# How it was run: as §1
# [6] = compound: Cc1nc(Nc2n[nH]c3c2CN(C(=O)N[C@H](CN(C)C)c2ccccc2)C3(C)C)c2sccc2n1
# How it was run: as §1
# dasatinib = compound: Cc1nc(Nc2ncc(C(=O)Nc3c(C)cccc3Cl)s2)cc(N2CCN(CCO)CC2)n1 [dasatinib]
# How it was run: as §1
# [7] = compound: Cc1ncc(-c2ccnc(Nc3ccc(S(C)(=O)=O)cc3)n2)n1C(C)C
# How it was run: as §1
# [8] = compound: Cn1cc(-c2ccc3c(c2)CCN3C(=O)Cc2cccc(C(F)(F)F)c2)c2c(N)ncnc21
# How it was run: as §1
# [9] = compound: Cn1cc(-c2ccc3nnc(C(F)(F)c4ccc5ncccc5c4)n3n2)cn1
# How it was run: as §1
# tipifarnib = compound: Cn1cncc1[C@@](N)(c1ccc(Cl)cc1)c1ccc2c(c1)c(-c1cccc(Cl)c1)cc(=O)n2C [tipifarnib]
# How it was run: as §1
# mubritinib = compound: FC(F)(F)c1ccc(/C=C/c2nc(COc3ccc(CCCCn4ccnn4)cc3)co2)cc1 [mubritinib]
# How it was run: as §1
# duvelisib = compound: C[C@H](Nc1ncnc2nc[nH]c12)c1cc2cccc(Cl)c2c(=O)n1-c1ccccc1 [duvelisib]
# How it was run: as §1
# tozasertib = compound: Cc1cc(Nc2cc(N3CCN(C)CC3)nc(Sc3ccc(NC(=O)C4CC4)cc3)n2)n[nH]1 [tozasertib]
# How it was run: as §1
Target,log2 fold change [1],log2 fold change (crizotinib),log2 fold change [2],log2 fold change [3],log2 fold change (gandotinib),log2 fold change [4],log2 fold change (doramapimod),log2 fold change (ispinesib),log2 fold change (bafetinib),log2 fold change [5],log2 fold change (nilotinib),log2 fold change [6],log2 fold change (dasatinib),log2 fold change [7],log2 fold change [8],log2 fold change [9],log2 fold change (tipifarnib),log2 fold change (mubritinib),log2 fold change (duvelisib),log2 fold change (tozasertib)
KHDRBS1 (UniProt Q07666),inactive: -0.091,inactive: -0.02,inactive: -0.06,inactive: -0.019,inactive: 0.07,inactive: 0.038,inactive: -0.027,inactive: 0.011,inactive: 0.041,inactive: 0.007,inactive: 0.035,inactive: 0.02,inactive: 0.012,inactive: 0.07,inactive: 0.025,inactive: -0.024,inactive: 0.017,inactive: 0.021,,
KCTD2 (UniProt Q14681),inactive: 0.178,inactive: 0.02,inactive: -0.047,inactive: 0.511,inactive: 0.355,inactive: -0.281,inactive: 0.089,inactive: 0.026,inactive: -0.23,active: -0.845,inactive: -0.144,inactive: 0.012,inactive: 0.146,inactive: -0.076,inactive: -0.102,inactive: -0.015,inactive: 0.308,inactive: 0.113,,
KCTD10 (UniProt Q9H3F6),inactive: -0.035,inactive: 0.097,inactive: -0.027,inactive: -0.13,inactive: 0.042,inactive: -0.01,inactive: -0.042,inactive: 0.108,inactive: -0.059,inactive: -0.036,inactive: 0.002,inactive: -0.088,inactive: 0.056,inactive: 0.074,inactive: 0.012,inactive: 0.153,inactive: 0.058,inactive: -0.009,,
KLHDC8B (UniProt Q8IXV7),inactive: -0.056,inactive: -0.225,,inactive: 0.152,inactive: -0.08,inactive: 0.014,inactive: 0.004,inactive: 0.088,inactive: -0.102,inactive: 0.1,,,inactive: 0.04,,inactive: -0.025,inactive: -0.282,,inactive: 0.035,inactive: 0.121,inactive: -0.192
KIDINS220 isoform 2 (UniProt Q9ULH0),inactive: 0.204,inactive: 0.138,inactive: -0.111,,,inactive: -0.148,inactive: 0.023,,inactive: -0.102,,inactive: -0.126,inactive: 0.046,inactive: 0.078,inactive: -0.025,,,,,inactive: 0.183,inactive: -0.208
KSR1 (UniProt Q8IVT5),inactive: -0.017,inactive: -0.287,inactive: 0.036,inactive: 0.047,inactive: -0.067,inactive: -0.017,inactive: 0.052,inactive: -0.113,inactive: 0.035,inactive: -0.052,inactive: -0.052,inactive: -0.303,inactive: -0.228,inactive: -0.021,inactive: 0.003,inactive: -0.129,inactive: -0.086,inactive: -0.233,,
KDM3B (UniProt Q7LBC6),inactive: 0.045,inactive: 0.001,inactive: 0.086,inactive: -0.044,inactive: -0.045,inactive: 0.012,inactive: -0.077,inactive: 0.015,inactive: -0.005,inactive: 0.038,inactive: -0.009,inactive: -0.098,inactive: -0.136,inactive: 0.042,inactive: -0.032,inactive: 0.006,inactive: 0.018,inactive: 0.002,,
KIF11 (UniProt P52732),inactive: 0.034,inactive: -0.091,inactive: -0.029,inactive: 0.207,inactive: -0.018,inactive: 0.19,inactive: 0.13,active: 0.761,inactive: 0.043,inactive: 0.044,inactive: -0.057,inactive: -0.031,inactive: -0.075,inactive: 0.088,inactive: -0.06,inactive: -0.002,inactive: -0.078,inactive: -0.025,,
KEL (UniProt P23276),inactive: 0.002,inactive: 0.084,inactive: -0.048,inactive: -0.07,inactive: -0.341,inactive: 0.019,inactive: 0.028,inactive: 0.047,inactive: -0.027,inactive: -0.002,inactive: 0.017,inactive: -0.032,inactive: -0.019,inactive: 0.004,inactive: 0.083,inactive: 0.003,inactive: 0.031,active: -0.591,,
KPNA6 (UniProt O60684),inactive: -0.01,inactive: -0.11,inactive: -0.011,inactive: 0.138,inactive: -0.028,inactive: 0.07,inactive: 0.046,inactive: -0.202,inactive: -0.071,inactive: 0.078,inactive: -0.054,inactive: -0.038,inactive: -0.067,inactive: 0.003,inactive: -0.098,inactive: -0.015,inactive: -0.033,inactive: -0.067,,
KDELR2 (UniProt P33947),inactive: 0.056,inactive: 0.035,inactive: 0.205,inactive: -0.096,inactive: -0.107,inactive: -0.007,inactive: 0.016,inactive: 0.016,inactive: -0.088,inactive: 0.072,inactive: -0.069,inactive: 0.035,inactive: 0.097,inactive: -0.082,inactive: 0.194,inactive: 0.264,inactive: 0.125,inactive: -0.049,,
KNG1 (UniProt P01042),inactive: -0.107,inactive: 0.028,,inactive: 0.031,inactive: 0.066,inactive: -0.2,inactive: 0.086,inactive: -0.008,inactive: -0.149,inactive: -0.161,inactive: 0.129,inactive: 0.166,inactive: 0.015,inactive: 0.053,inactive: 0.216,inactive: -0.202,inactive: 0.067,inactive: -0.218,inactive: -0.123,inactive: -0.061
KISS1R (UniProt Q969F8),inactive: -0.128,inactive: 0.144,inactive: 0.071,,inactive: -0.123,inactive: 0.165,inactive: -0.062,inactive: 0.02,inactive: 0.25,inactive: -0.002,,,inactive: -0.123,,,inactive: -0.056,inactive: -0.15,inactive: -0.077,inactive: 0.366,inactive: -0.121
KIF3A (UniProt Q9Y496),inactive: 0.049,inactive: -0.239,inactive: -0.01,inactive: 0.143,inactive: -0.024,inactive: -0.029,inactive: 0.003,inactive: 0.044,inactive: 0.022,inactive: -0.047,inactive: -0.128,inactive: 0.054,inactive: -0.068,inactive: 0.093,inactive: 0.025,inactive: -0.043,inactive: -0.031,inactive: 0.018,,
KIF13A (UniProt Q9H1H9),inactive: 0.018,inactive: 0.058,inactive: 0.112,inactive: 0.072,active: -0.384,inactive: -0.009,inactive: -0.011,inactive: -0.003,inactive: -0.033,inactive: -0.095,inactive: 0.012,inactive: -0.01,inactive: -0.044,inactive: 0.008,inactive: 0.029,inactive: -0.032,inactive: -0.014,inactive: 0.024,,
KEAP1 (UniProt Q14145),inactive: 0.011,inactive: -0.077,inactive: -0.095,inactive: 0.111,inactive: -0.176,inactive: 0.049,inactive: 0.089,inactive: -0.102,inactive: -0.057,inactive: 0.032,inactive: -0.108,inactive: -0.108,inactive: -0.027,inactive: 0.021,inactive: -0.085,inactive: -0.07,inactive: -0.047,inactive: 0.037,,
KDM5D isoform 3 (UniProt Q9BY66),inactive: -0.004,inactive: 0.038,inactive: -0.005,inactive: -0.054,inactive: -0.051,inactive: 0.125,inactive: 0.108,inactive: 0,inactive: 0.208,inactive: -0.049,inactive: 0.089,inactive: -0.054,inactive: -0.289,inactive: -0.047,inactive: -0.026,inactive: 0.058,inactive: -0.044,inactive: 0.203,,
KCNN4 (UniProt O15554),inactive: -0.05,inactive: -0.105,,inactive: 0.045,,inactive: -0.029,inactive: 0.029,inactive: -0.109,inactive: -0.311,,inactive: 0.114,inactive: 0.076,inactive: 0.039,inactive: 0.1,inactive: -0.219,inactive: -0.01,inactive: 0.04,inactive: -0.03,inactive: 0.026,inactive: -0.051

# Reprinted at random: two entries already listed
Target,log2 fold change [1],log2 fold change (crizotinib),log2 fold change [2],log2 fold change [3],log2 fold change (gandotinib),log2 fold change [4],log2 fold change (doramapimod),log2 fold change (ispinesib),log2 fold change (bafetinib),log2 fold change [5],log2 fold change (nilotinib),log2 fold change [6],log2 fold change (dasatinib),log2 fold change [7],log2 fold change [8],log2 fold change [9],log2 fold change (tipifarnib),log2 fold change (mubritinib),log2 fold change (duvelisib),log2 fold change (tozasertib)
KIDINS220 isoform 2 (UniProt Q9ULH0),inactive: 0.204,inactive: 0.138,inactive: -0.111,,,inactive: -0.148,inactive: 0.023,,inactive: -0.102,,inactive: -0.126,inactive: 0.046,inactive: 0.078,inactive: -0.025,,,,,inactive: 0.183,inactive: -0.208
KHDRBS1 (UniProt Q07666),inactive: -0.091,inactive: -0.02,inactive: -0.06,inactive: -0.019,inactive: 0.07,inactive: 0.038,inactive: -0.027,inactive: 0.011,inactive: 0.041,inactive: 0.007,inactive: 0.035,inactive: 0.02,inactive: 0.012,inactive: 0.07,inactive: 0.025,inactive: -0.024,inactive: 0.017,inactive: 0.021,,
